{"source": "PubChem BioAssay AID1508600", "about": "(Functional Genomics Laboratory (NCATS/FGL), 2020)", "note": "The campaign covered roughly 53,000 sequences. About 3,700 (7%) were called active.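 Rule for the calls: active = gene knockdowns whose robust z-score for IL-1 alpha signal is at least 2 or at most -2, so actives lie on both sides; inactive = the rest.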 The list shows a part of the results."}
{"assay": "Components of the Cytosolic LPS Sensing Pathway: Gene Identification via Genome-wide siRNA Screen;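 note: robust z of the log signal after scaling to non-targeting control siRNA wells of the plate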", "conditions": "RAW264.7 macrophages, IL-1a HTRF, actives lie on both sides, screened at 100 nM (by protocol), cells primed 5 h with Pam3CSK4 first", "in_short": "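RAW264.7 mouse macrophages reverse-transfected with single siRNAs (100 nM final) for 48h, primed with Pam3CSK4 for 5 hours, then transfected with LipidA for 24 hour. Supernatant IL-1a read by HTRF; values normalized to negative-control median, log-transformed robust z-scores.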"}
{"sequence": "GGGACAGAAAGGAAAGACUTT against Ndufb4", "z-score": "inactive: 0.0331"}
{"sequence": "GGCUGUCGAGUAUAAAUCUTT against Stfa3", "z-score": "inactive: -0.564"}
{"sequence": "CCCGUCAAUACCACUUACCTT against Sidt2", "z-score": "active: 2.19"}
{"sequence": "GGACGAAUGUCACAAUUUUTT against Sema4f", "z-score": "inactive: 0.167"}
{"sequence": "GCCAUCAUCCAGCUAUGACTT against Olfr360", "z-score": "inactive: -0.782"}
{"sequence": "GCCCAAAAAGUGCUUGCUGTT against Tmem215", "z-score": "inactive: -1.76"}
{"sequence": "GCUCCGUCAGACAAAGAAGTT against Apex1", "z-score": "inactive: 0.0609"}
{"sequence": "GAUCAAAGAUCAUGUGGCCTT against Fau", "z-score": "inactive: -0.541"}
{"sequence": "GGGUUUAUGUAAGUUUCCUTT against Nelfcd", "z-score": "inactive: -1.47"}
{"sequence": "GGAAUGAGAAGUUCUAUGATT against Chrna7", "z-score": "inactive: 0.282"}
{"sequence": "GGGCCAUUUUAGGUCCUUUTT against Rbm7", "z-score": "inactive: 0.112"}
{"sequence": "GGAUUUGCAUAUGUUCAAUTT against Srsf10", "z-score": "inactive: -0.0373"}
{"sequence": "GGAACAGUCUGAAAUACACTT against Usp18", "z-score": "inactive: -0.907"}
{"sequence": "GGUGCUGCUUUAUUCCUGGTT against Dhcr7", "z-score": "inactive: -0.632"}
{"sequence": "GGAAAUGAAGCAUCUGUAUTT against Txnip", "z-score": "active: -2.3"}
{"sequence": "GGACAAGCAAGGUCAAUCATT against Taar1", "z-score": "inactive: -1.11"}
{"sequence": "CCUCUUCAGAAGCUCUCCUTT against Olfr1320", "z-score": "inactive: -1.11"}
{"sequence": "GCUCCUUAAACAGUAAUCATT against Adipor2", "z-score": "inactive: 1.9"}
{"sequence": "GGCUGAACAAGAGAAACCATT against Ppdpf", "z-score": "active: -2.49"}
{"sequence": "CCGCGUGACCAACUUUGUGTT against Tab1", "z-score": "inactive: -0.981"}
{"sequence": "GGAUAGCAUGCUUCCUGAGTT against Rhbdf2", "z-score": "active: -2.19"}
{"sequence": "GGAUGAAAUCAAAAUGGAUTT against Zfp622", "z-score": "inactive: 0.45"}
{"sequence": "GGCCUUCACUACGAGGGAATT against Pfkl", "z-score": "inactive: 0.523"}
{"sequence": "GGAUCAAGGAGGAUUUCAATT against Tprg", "z-score": "active: 2.38"}
{"sequence": "GGCGAUGAAGAAGUAAUUUTT against Appl2", "z-score": "inactive: -1.2"}
{"sequence": "GCCGAUAUGAGGAUAGCGATT against Cckar", "z-score": "inactive: 0.718"}
{"sequence": "GACACUGAACAACGACAUUTT against Prss3", "z-score": "inactive: -0.578"}
{"sequence": "GGUCUUCUUUGUGUUCGCUTT against Olfr283", "z-score": "inactive: -0.0406"}
{"sequence": "AGUUAGCCUUGAGGAGAAUTT against Olfr1512", "z-score": "inactive: 0.503"}
{"sequence": "GGUCAUCUGUGUUUACACGTT against AI837181", "z-score": "inactive: 1.5"}
{"sequence": "CGGAUCUUGUCAAUAACCATT against Angptl1", "z-score": "inactive: 0.295"}
{"sequence": "CCUGCGUAGAAAGAUGAUGTT against Tekt2", "z-score": "inactive: 0.0498"}
{"sequence": "GGAGUAUUUCUACACCAGCTT against Ccl5", "z-score": "inactive: -0.62"}
{"sequence": "GGACCCAAGCCUAAAACCUTT against Cbx8", "z-score": "inactive: -0.637"}
{"sequence": "CGGGUCCUUUUCCACUACATT against Rptor", "z-score": "inactive: 0.942"}
{"sequence": "CGCAAACAGGAUUGUUCUATT against Lgals3", "z-score": "inactive: 0.158"}
{"sequence": "GGAAAUAGAAACCUCAAGUTT against Sipa1l1", "z-score": "inactive: -0.481"}
{"sequence": "GGCCACUUGUGGACAGUUUTT against Rassf7", "z-score": "inactive: 0.24"}
{"sequence": "GAUUGUGCCUUAUCUCUAATT against Vmn1r203", "z-score": "inactive: 1.28"}
{"sequence": "GCCUCAUCCCUAUAGUCCUTT against Spaca9", "z-score": "inactive: -0.257"}
{"sequence": "GGUGUUUGAAUGGAAGGACTT against Idua", "z-score": "inactive: 0.33"}
{"sequence": "CGUUCUCGUUCUGUUUAUUTT against Ctps2", "z-score": "inactive: 0.3"}
{"sequence": "GCUGCCUUUAAUGUGGCAATT against Tcl1", "z-score": "inactive: -0.85"}
{"sequence": "CCAAUUUGGCUUCACUUCCTT against Fpr3", "z-score": "inactive: 1.59"}
{"sequence": "GGAAGACCUAAACAACGGCTT against Dusp10", "z-score": "inactive: -1.55"}
{"sequence": "CCAUUCCUGUCCCUUAAUATT against Pip4p1", "z-score": "inactive: -0.237"}
{"sequence": "GGAUUCUCAUCUGUCAUAATT against Slc26a3", "z-score": "inactive: 0.141"}
{"sequence": "CGCUAACUGGAAAGAAACUTT against Dusp19", "z-score": "inactive: 0.43"}
{"sequence": "GCAUCAAUGGGCUAUUGAUTT against Cep70", "z-score": "inactive: 0.414"}
{"sequence": "GCAUGCAGUAAUUGAAAUCTT against Mdc1", "z-score": "inactive: -0.198"}
{"sequence": "CCAAUCUUCUCCUCAAGACTT against Olfr101", "z-score": "inactive: -0.0712"}
{"sequence": "GCCAUAACCUACAUUGUCATT against Loxhd1", "z-score": "active: -2.86"}
{"sequence": "GCUGCUGCUAUAUAUUGAATT against Wsb1", "z-score": "inactive: 1.01"}
{"sequence": "GGAGUAUAAAAAGUUCAGATT against Ell3", "z-score": "inactive: 0.222"}
{"sequence": "GCCGAUUUUAUCUUUGUCATT against Dpysl5", "z-score": "inactive: -0.422"}
{"sequence": "GCUUCAUUUGUGCCUCUAUTT against Rptor", "z-score": "inactive: 1.05"}
{"sequence": "GGUUAAGUGUGUUAAGUUCTT against Cipc", "z-score": "inactive: 1.48"}
{"sequence": "GGAUGCAGCUAACAAUUACTT against Tuba8", "z-score": "inactive: 1.05"}
{"sequence": "GCAGAUUGAUUAUACGGUATT against Tmem106b", "z-score": "inactive: 0.239"}
{"sequence": "GGUCCUUAAUGAGCCUGGATT against Ankrd34c", "z-score": "inactive: -0.929"}
{"sequence": "GGAUCAUCUGCAUAAUAGATT against Rpl39l", "z-score": "inactive: 0.161"}
{"sequence": "GCUAAAGUGAGCAGCGGGATT against Gipc3", "z-score": "inactive: 0.218"}
{"sequence": "GCAAAUGACUUCCAACAAUTT against Uqcrq", "z-score": "active: 3.84"}
{"sequence": "GCAGAGUGUUUAAGUUUAUTT against Cftr", "z-score": "inactive: 1.42"}
{"sequence": "CCAUAUCUCAUGAGGAAGGTT against Olfr1368", "z-score": "inactive: 1.53"}
{"sequence": "GGGCAGCUGCUAUUUAUUUTT against Fosl1", "z-score": "inactive: 0.659"}
{"sequence": "GGAUCAGUGCCUUUGGCUATT against Rhoc", "z-score": "inactive: -1.75"}
{"sequence": "GGAGCUCGAAAAAUUUCAATT against Igfl3", "z-score": "active: 2.13"}
{"sequence": "GGACAAUGUGGAGAAGGAATT against BC048403", "z-score": "inactive: -1.52"}
{"sequence": "GGCUGCUGUAACGAUGAAGTT against Vegfa", "z-score": "inactive: -0.794"}
{"sequence": "GGACAGAGAUCAAUAUUAATT against Rxfp3", "z-score": "inactive: -0.0718"}
{"sequence": "GCGGGAAAUAGCUGACUUATT against Rabep1", "z-score": "inactive: -0.636"}
{"sequence": "GGCCUUGGAACAGAAUCCGTT against Sugt1", "z-score": "inactive: 0.267"}
{"sequence": "CCUUAUUGAGACGAAUACGTT against Fastkd1", "z-score": "inactive: -0.958"}
{"sequence": "GCUCUCAUCGUCCCUGAAUTT against Cln8", "z-score": "inactive: -0.925"}
{"sequence": "GCACGAAUGCCUUUUUAGATT against Mphosph8", "z-score": "inactive: 0.32"}
{"sequence": "CGGUAUAUCCAAAUUUCUCTT against Art2a", "z-score": "inactive: 0.87"}
{"sequence": "GCGGUGUAAACAGAUGGAGTT against Atg3", "z-score": "inactive: 0.889"}
{"sequence": "GGAUACCACUUCAUCACCCTT against Gm9801", "z-score": "inactive: -0.56"}
{"sequence": "GGACUUGAACAACUUACAATT against Plcb1", "z-score": "active: 2.37"}
{"sequence": "GGCCUUCUCUGACUUUCUGTT against Zfp324", "z-score": "inactive: -0.633"}
{"sequence": "GGAAGUUUGCUCCAGCCUUTT against Tmem33", "z-score": "inactive: -0.202"}
{"sequence": "GCCUGACCGACUCAACUACTT against Dbh", "z-score": "inactive: 0.354"}
{"sequence": "GCACCAUCGCUUUGUUAUUTT against Hdlbp", "z-score": "inactive: 1.19"}
{"sequence": "CCCUAACAAACCCUAUUAUTT against Kdm6b", "z-score": "inactive: -1.49"}
{"sequence": "GUAAAGGUCUUGAUAGCCUTT against Tcl1b2", "z-score": "inactive: 0.0799"}
{"sequence": "CCAAAGUUAUUGCAUGCACTT against Kcna4", "z-score": "inactive: 1.25"}
{"sequence": "CCCGAACCUGUUGUCUGAATT against Ttc8", "z-score": "inactive: -0.422"}
{"sequence": "GGAACUCACGCACAUAUUUTT against Net1", "z-score": "inactive: -0.483"}
{"sequence": "GGAGUCGUUUUCUGUUACUTT against Gemin5", "z-score": "inactive: -0.22"}
{"sequence": "GGAAAGAAGAAGAGGUGAGTT against Pecr", "z-score": "inactive: 1.41"}
{"sequence": "CGGAAUGCCAAAGAUGUGGTT against Sult1d1", "z-score": "inactive: -0.872"}
{"sequence": "CCGUACUCUACCUCCACAATT against Flrt2", "z-score": "inactive: -1.19"}
{"sequence": "GGAAGCUUCUUCAGUACAATT against Rai14", "z-score": "inactive: 0.639"}
{"sequence": "GGGUUCAUUUUUGGCUUUCTT against Serpina3m", "z-score": "inactive: 0.0735"}
{"sequence": "GGCUAUGAGAAAUACACUCTT against Zfp35", "z-score": "inactive: -0.591"}
{"sequence": "GGACUCAGCAUCGUGAUACTT against Krtap15", "z-score": "inactive: -0.972"}
{"sequence": "GCGGUUUGUGUUGAUCUUGTT against Olfr768", "z-score": "inactive: 0.572"}
{"sequence": "GCACUUACGCAGGCAUUUUTT against Apoc2", "z-score": "inactive: -0.721"}
{"sequence": "GGAGAGUCUCCAGACUUUGTT against Med29", "z-score": "inactive: -0.521"}
{"sequence": "CCUAAAACUCCUCUAUCUUTT against Lrriq3", "z-score": "inactive: 1.62"}
{"sequence": "GGAUGAAGAGAAAAAUUGATT against Slc20a1", "z-score": "inactive: -0.328"}
{"sequence": "GCGGUUAUAAUGGGACCAUTT against Kif15", "z-score": "active: 3.21"}
{"sequence": "GCUUUUGACGAGCAAGCAGTT against Eme1", "z-score": "inactive: 1.47"}
{"sequence": "GCUAAAAAGCCGAAUUCUATT against a", "z-score": "inactive: -0.00453"}
{"sequence": "CCGUGCCAAACUUCUUACUTT against 2610528J11Rik", "z-score": "inactive: -0.1"}
{"sequence": "GCAUUUCUACUGGAUUGUGTT against Luc7l2", "z-score": "inactive: 0.0609"}
